## Library screening results

Sequences of proteins named here, by UniProt entry; tags and fusion partners are left off.
UniProt E9BF75, entry or part of it: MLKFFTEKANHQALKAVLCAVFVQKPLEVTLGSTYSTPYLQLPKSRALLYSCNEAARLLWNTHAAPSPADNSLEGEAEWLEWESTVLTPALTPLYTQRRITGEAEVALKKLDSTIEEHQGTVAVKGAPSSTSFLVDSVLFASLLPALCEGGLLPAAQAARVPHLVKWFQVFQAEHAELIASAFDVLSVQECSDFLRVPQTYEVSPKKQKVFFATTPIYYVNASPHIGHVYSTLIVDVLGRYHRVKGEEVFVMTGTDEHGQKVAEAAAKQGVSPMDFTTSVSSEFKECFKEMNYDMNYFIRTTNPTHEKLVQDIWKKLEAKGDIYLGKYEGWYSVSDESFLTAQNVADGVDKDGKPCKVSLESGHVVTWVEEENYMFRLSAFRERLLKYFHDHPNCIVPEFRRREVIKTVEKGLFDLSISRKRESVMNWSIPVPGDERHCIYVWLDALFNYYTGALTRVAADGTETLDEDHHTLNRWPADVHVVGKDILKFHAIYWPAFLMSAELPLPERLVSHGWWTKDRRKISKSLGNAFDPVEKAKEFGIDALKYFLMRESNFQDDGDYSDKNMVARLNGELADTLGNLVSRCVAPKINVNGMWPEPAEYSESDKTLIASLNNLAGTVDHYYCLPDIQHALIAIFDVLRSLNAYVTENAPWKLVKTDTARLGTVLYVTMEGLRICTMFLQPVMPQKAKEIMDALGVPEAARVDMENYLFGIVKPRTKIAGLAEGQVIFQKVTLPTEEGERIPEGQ

Data taken from ChEMBL document CHEMBL3988442, “University of Dundee, Small-Polar-MMV Screening Library” (2021).

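Primary screen of methionyl-tRNA synthetase; the read-out is not stated. Target: Methionyl-tRNA synthetase (putative), Leishmania donovani (UniProt E9BF75). The test concentration is not given. The values are filed as inhibition. Of about 68,000 compounds tested this way, about 24 (0.035%) reached 50% or more in at least one test.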

All values are in %. The record does not define 0% and 100%; most values in the screen are far below 50% and negative numbers occur (in some assays of this library far below -100). This is an unselected part of the compounds tested.

Result for Cc1cnc(CN2CCOC(Cn3nc(C)cc3C)C2)cn1 (stereo unspecified) was 14.74%.
Result for COc1ccnc(N2CCN(C(=O)c3cnc(C4CC4)s3)CC2)n1 was 0.7117%.
Result for c1cnc(NC[C@H]2OC[C@@H]3CCN(Cc4ccncc4)C[C@@H]32)nc1 was 8.493%.
Result for CC(C)c1noc(CNC2CCCN(Cc3noc(C4CC4)n3)C2)n1 (stereo unspecified) was 7.614%.
Result for O=C(c1cccnc1)N1CCO[C@@H]2CNC[C@@H]21 was 12.47%.
Result for CCn1ncc2c1C(COC)CN(Cc1ccc(F)cc1)C2 (stereo unspecified) was 6.599%.
Result for c1ccc(C(CC2CN(Cc3c[nH]cn3)CCO2)c2ccccc2)cc1 (stereo unspecified) was 17.49%.
Result for Cc1cc(N2CCC(c3ncc[nH]3)CC2)cc(C)n1 was 6.162%.
Result for O=C1NC2(CCN(CCc3ccccc3)CC2)CC1c1ccccc1 (stereo unspecified) was 13.35%.
Result for Cc1cc(C(O)CCNC(=O)COc2ccccc2C)c(C)o1 (stereo unspecified) was 14.39%.
Result for CCN(CC)CCCNc1nc(C)nc2c1CCN(C)C2 was 15.84%.
Result for CN1CCN(CC2CC2)C(=O)c2cnc(N3CCCC3)nc21 was 1.399%.
Result for CC/C=C(\C)CN1CCC(CNC(=O)c2ccnc(N)c2)C1 (stereo unspecified) was 7.581%.
Result for O=S(=O)(c1ccccc1)N1CCN(Cc2ccc(F)cc2Br)CC1 was 16.37%.
Result for CC(C)N1CCC(N2CCCC(C(=O)NCC3(O)CCCCC3)C2)CC1 (stereo unspecified) was 11.73%.
Result for CN1CCN([C@@H]2CN(C(=O)c3cc4cccc(F)c4[nH]3)C[C@H]2O)CC1 was 12.89%.
Result for Cn1cc(S(=O)(=O)N2CCCC2Cn2ccnc2)cn1 (stereo unspecified) was 15.96%.
Result for CCc1nc2ccccc2c(=O)n1CC1(O)CCNCC1 was 4.688%.
Result for CSc1ncc(C(=O)N2C[C@H]3CC[C@@H]2CN(Cc2ccccc2)C3)cn1 was 13.3%.
Result for c1ccc(CNc2ncc(CN3CC[C@H]4CC[C@@H](C3)N4)cn2)cc1 was 13.89%.
Result for O=C(Nc1ccc(Cn2cccn2)cc1)N1CCC(CO)CC1 was 17.18%.
Result for Cc1nc(CNC(=O)Nc2ccc3c(c2)CCCN3C)sc1C was 15.22%.
Result for O=C(C1CCC1)N1CCCn2nc(CNc3ncccn3)cc2C1 was 16.56%.
Result for Cc1ncccc1-c1cc2cccnc2n1CCCNC(=O)C1CC1 was 3.492%.
Result for FC(F)(F)c1ccc2nc([C@H]3CCN(C4CCCCC4)C3)[nH]c2c1 was 14.84%.
Result for Cc1noc(C)c1-c1cccc(C2CCNCC2)n1 was 12.26%.
Result for CCNC(=O)c1ccc2ccc(N(CC)CC)n2c1 was 28.99%.
Result for COc1cccc(CNC(=O)CN2CCCC(Cn3cncn3)C2)c1 (stereo unspecified) was 17.05%.
Result for Fc1ccc(CN[C@@H]2COC[C@H]2c2ccc(F)cc2)cc1 was 12.77%.
Result for CN(Cc1ccc(F)c(F)c1)C(=O)CCc1nc(-c2nnc[nH]2)no1 was 9.582%.
Result for CC(C)c1nnc2n1CC(CNCc1nc3ccccc3s1)CC2 (stereo unspecified) was 10.17%.
Result for COCCc1ncc(CN2C[C@@H](C(=O)O)[C@H](C(C)C)C2)cn1 was 1.344%.
Result for COc1ccc(S(=O)(=O)NCc2cccnc2N(C)C)cc1 was 15.49%.
Result for O=C(c1ccc[nH]1)N1CCn2cc(Cn3cccn3)nc2C1 was 5.473%.
Result for Cc1ccc(NC2CCN(C(=O)c3cc(C)no3)CC2)nn1 was 22.11%.
Result for O=C([C@@H]1COC[C@H]2CN(C3CCCC3)C[C@H]21)N1CCCCO1 was 8.795%.
Result for CC1CN(c2ncccc2C(=O)Nc2cccc3c2CCCC3)CCN1 (stereo unspecified) was 4.722%.
Result for CN1[C@H]2CC[C@@H]1CN(c1nc(-c3ccncc3)nc3c1cnn3C)CC2 was 14.98%.

The last 4 entries again:

structure,Inhibition
Cc1ccc(NC2CCN(C(=O)c3cc(C)no3)CC2)nn1,22.11
O=C([C@@H]1COC[C@H]2CN(C3CCCC3)C[C@H]21)N1CCCCO1,8.795
CC1CN(c2ncccc2C(=O)Nc2cccc3c2CCCC3)CCN1 (stereo unspecified),4.722
CN1[C@H]2CC[C@@H]1CN(c1nc(-c3ccncc3)nc3c1cnn3C)CC2,14.98